# Test results from PubChem BioAssay AID624297 (National Center for Advancing Translational Sciences (NCATS), 2012).
# About 6,200 (1.8%) of roughly 340,000 compounds were called active. The shares of active, inactive and inconclusive entries below differ from those in the screen. The call rests on the fitted dose curve; in most records, active means well fitted activation curve with a large enough effect; inconclusive means small, poorly fitted or top-dose-only effect; inactive means no such curve, though single readings can be large or run the other way. Potencies of inconclusive entries are doubtful fits and often do not repeat.
# Assay: A quantitative high throughput screen for small molecules that induce DNA re-replication in SW480 colon adenocarcinoma cells. Further: nearly all actives have a fitted effect of over 55% in size. On re-replication activation: % of control where 0% means no effect.
# Details: Hoechst DNA content imaging, 48 h; re-replication activation: at 46.1 µM (top of the series) unless noted
# How it was run: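 Cells (250 per well) received 23 nL compound or DMSO by pin tool and were kept 48 hr at 37 C, 5% CO2. Nuclei were then stained with Hoechst for 40 min and scanned for DNA content.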
# Potency means the concentration at half of the fitted maximal effect.
SMILES,Potency,re-replication activation
CN(CCc1nc2ccc(Cl)cc2[nH]1)Cc1nc(CC2CC2)no1,"inconclusive: 32.6 µM [activator, single point]",–
Fc1ccc2cc(-c3ccsc3)ncc2c1,–,inactive: -2.3%
CCN(CC)C(=O)Cn1nnc(-c2ccc(S(C)(=O)=O)cc2)n1,"inconclusive: 0.0058 µM [activator, full curve, poor fit]",–
O=C(CCl)Nc1cc(-c2ccccc2)nn1-c1ccccc1,"inconclusive: 20.6 µM [activator, single point]",–
CCOC(=O)c1cc(-c2ccccc2C)n(CC2CC(c3cccc([N+](=O)[O-])c3)=NO2)n1 (configuration not stated),"inconclusive: 29.1 µM [activator, single point]",–
COc1cccc(C2N=C(c3ccccc3C)NO2)c1OC (configuration not stated),–,inactive: 1.15%
O=c1c2ccccc2nc(-c2ccccc2)n1CCCN1CCOCC1,"inconclusive: 6.51 µM [activator, partial curve, poor fit]",–
C=CCn1c(CNC(=O)c2ccccc2F)nnc1SCC(=O)NC(C)c1ccccc1 (configuration not stated),–,inactive: -1.82%
Cc1cnc(NC(=O)c2cc3c(C)nn(-c4ccccc4)c3s2)s1,"inconclusive: 6.31 µM [activator, full curve, poor fit]",–
COc1ccc(NC(=O)c2cc(Cl)ccc2NC(=O)c2ccco2)c(OC)c1,–,inactive: 0.202% [at 9.22 µM]
O=C(Nc1nc(-c2cccs2)cs1)c1ccc(S(=O)(=O)N2CCCC2)cc1,"inconclusive: 13 µM [activator, partial curve]",–
Cc1sc2ncnc(NCC3COc4ccccc4O3)c2c1C (configuration not stated),"inconclusive: 10.3 µM [activator, single point]",–
CCN(C[C@H]1N[C@@](Cc2ccccc2)(C(=O)OC)[C@H]2C(=O)N(Cc3ccccc3)C(=O)[C@@H]12)C(=O)C1CCCCC1,"inconclusive: 1.64 µM [activator, partial curve, poor fit]",–
O=C(/C=C/c1ccccc1)Nc1cccc(C(=O)N2CCCC2)c1,–,inactive: 0%
COc1ccc(N2CCN(C(=O)CSc3ncnc4scc(-c5ccc(C)cc5)c34)CC2)cc1,–,inactive: 6.78%
O=C(c1ccc(S(=O)(=O)Nc2ccc(F)cc2)cc1)N1CCN(c2ccccn2)CC1,–,inactive: -0.759%
COc1cc(OC)cc(C(=O)NC(=S)NCCc2ccccc2)c1,"inconclusive: 18.4 µM [activator, single point]",–
Cc1nn(-c2ccc(C(=O)NCC(c3ccco3)N3CCCC3)cc2)c(C)c1Cl (configuration not stated),–,inactive: 18.6%
Cc1cccc(NC(=O)C2CCN(S(=O)(=O)c3ccc(Cl)cc3)CC2)n1,"inconclusive: 18.4 µM [activator, single point]",–
O=Cc1ccc(Oc2nc(Cl)ncc2F)cc1,"inconclusive: 14.6 µM [activator, single point]",–
CCOC(=O)N1CC=C2C(C#N)=C(N)C(C#N)(C#N)[C@H](c3ccc(OC(C)C)c(OCC)c3)[C@H]2C1,"inconclusive: 29.1 µM [activator, single point]",–
COC(=O)c1cc(NC(=O)C2(S(=O)(=O)c3ccc(C)cc3)CC2)cc(C(=O)OC)c1,"inconclusive: 20.6 µM [activator, single point]",–
CCN(CC)S(=O)(=O)c1ccc(C(=O)N(c2ccc(C)cc2)C2C=CS(=O)(=O)C2)cc1 (configuration not stated),–,inactive: -2.69%

SMILES,Potency,re-replication activation
CCC(c1ccccc1)C(CC)c1cc(O)c(O)c(O)c1 (configuration not stated),"inconclusive: 18.4 µM [activator, partial curve, poor fit]",–
CC(=O)c1cccc(OCc2cc(C(=O)N(C)Cc3ccc(C)o3)no2)c1,"inconclusive: 29.1 µM [activator, single point]",–
COC(=O)c1ccccc1NC(=O)CN(C)S(=O)(=O)c1ccc(OC)c(C)c1,"inconclusive: 25.9 µM [activator, single point]",–
O=C(CSc1nnc(CNC(=O)c2ccccc2)o1)c1ccc(Cl)cc1,"inconclusive: 29.1 µM [activator, single point]",–
Cc1c(C(=O)N2CCc3ccccc3C2)oc2ccc(S(=O)(=O)N3CC(C)CC(C)C3)cc12 (configuration not stated),"inconclusive: 18.4 µM [activator, partial curve, poor fit]",–
c1ccc(CCC2=NCCn3cccc32)cc1,"inconclusive: 23.1 µM [activator, partial curve, poor fit]",–
CCOC(=O)c1c(C)[nH]c2c1-c1ccccc1C(=O)C2=O,active: 5.17 µM,–
O=C(NCCc1ccccc1)C1CCC(=O)N(CCCN2CCCC2=O)C1 (configuration not stated),–,inactive: -15.2%
Cc1ccc(-n2[nH]c(C)c(/C=N/n3c(C)nc4ccccc4c3=O)c2=O)cc1,"inconclusive: 3.66 µM [activator, full curve]",–
O=C(NN=Cc1ccccc1O)c1cccc([N+](=O)[O-])c1,active: 0.58 µM,–
COc1cc(C)c(C)cc1S(=O)(=O)N1CCCc2ccccc21,"inconclusive: 29.1 µM [activator, single point]",–
Cc1ccc(-c2csc(NC(=O)C3CC(=O)N(Cc4ccco4)C3)n2)cc1 (configuration not stated),–,inactive: 14.5%
CC[C@@H](C)[C@@H]1CN([C@@H](C)CN2CCC[C@H]2CN2C(N)=NC[C@@H]2Cc2ccccc2)C(=N)N1CCc1ccc(Cl)c(Cl)c1,–,inactive: -4.67%
COc1ccc(CC(=O)NCC(=O)Nc2ccccc2Br)cc1,"inconclusive: 29.1 µM [activator, single point]",–
CCOc1ccc(C(=O)COC(=O)c2cc([N+](=O)[O-])ccc2N2CCOCC2)cc1,active: 4.11 µM,–
CC(=O)CCC(=O)c1ccc2ccccc2c1,"inconclusive: 29.1 µM [activator, single point]",–
CN(C)c1nc(C(=O)Nc2ccccc2)nc(N(C)C)n1,–,inactive: 0.045%
O=[N+]([O-])c1ccc(C(O)CN2CCOCC2)cc1 (configuration not stated),–,inactive: 1.16%
COc1ccccc1C(=O)NC(CCSC)C(=O)NNC(=O)c1ccccc1O (configuration not stated),"inconclusive: 29.1 µM [activator, single point]",–
Fc1cccc(F)c1[B-](F)(F)F,"inconclusive: 1.16 µM [activator, partial curve, poor fit]",–
Cc1ccc(OCC(=O)N/N=C2\CCOc3c(C)cccc32)cc1,"inconclusive: 35.5 µM [activator, partial curve, poor fit]",–
CCOc1ccccc1N1CC(C(=O)N(CC)CC(=O)Nc2ccc3c(c2)OCCO3)CC1=O (configuration not stated),active: 2.31 µM,–
COc1ccc2c(c1)O[C@@H](c1cccc(C(F)(F)F)c1)[C@H](O)C2=O,active: 20.6 µM,–

SMILES,Potency,re-replication activation
O=C(CSc1nnc(-c2ccccn2)n1Cc1ccco1)c1ccc(-c2ccccc2)cc1,"inconclusive: 25.9 µM [activator, single point]",–
CCc1oc(C(=O)OC)cc1CSC(=N)N,"inconclusive: 29.1 µM [activator, single point]",–
CCCCSc1nc2sc3c(c2c(=O)[nH]1)CC(C)(CC)OC3 (configuration not stated),–,inactive: 0.214%
CCC1CCCCN1CCCNC(=O)Cn1c(=O)c2cccn2c2ccccc21 (configuration not stated),"inconclusive: 25.9 µM [activator, single point]",–
C/C(N)=C(/C#N)C(=O)CSc1nnc(Nc2cccc(C)c2)s1,"inconclusive: 29.1 µM [activator, single point]",–
CCN(Cc1ccncc1)S(=O)(=O)c1ccc(C(C)=O)cc1,"inconclusive: 18.4 µM [activator, partial curve]",–
COc1ccc(C(CNC(=O)CCNC(=O)c2ccccc2Cl)N2CCCC2)cc1 (configuration not stated),"inconclusive: 3.26 µM [activator, single point]",–
CCN1CCN(c2c(/C=C3\SC(=S)N(Cc4ccco4)C3=O)c(C)c(C#N)c(=O)n2C)CC1,"inconclusive: 29.1 µM [activator, single point]",–
Cc1cc(NC(=O)c2cncc(Br)c2)ccc1NC(=O)c1cc2ccccc2o1,"inconclusive: 18.4 µM [activator, single point]",–
Cc1ccc(C2(C)NC(=O)N(CC(=O)Nc3ccc4[nH]c(=O)[nH]c4c3)C2=O)cc1 (configuration not stated),"inconclusive: 16.4 µM [activator, partial curve, poor fit]",–
CC1CCN(C(=O)Cn2c(=O)n(Cc3ccc4c(c3)OCO4)c(=O)c3ccccc32)CC1,–,inactive: 13.7%
Cc1ccc(S(=O)(=O)N(Cc2cccc(F)c2)C(=O)N2CCN(C)CC2)cc1,–,inactive: -1.99%
CCOc1cc(/C=N/NC(=O)c2nn(C)cc2Br)ccc1OCc1ccccc1Cl,"inconclusive: 29.1 µM [activator, single point]",–
O=C1C(N2CCOCC2)=C(n2nnc3ccccc32)C(=O)c2ccccc21,"inconclusive: 4.11 µM [activator, single point]",–
Cc1ccc(S(=O)(=O)NC2OC(=O)C(Cl)=C2Cl)cc1 (configuration not stated),"inconclusive: 29.1 µM [activator, single point]",–
CCOC(=O)C1=C(C)N=C2SCCC(=O)N2C1c1cc(Br)ccc1OC (configuration not stated),"inconclusive: 32.6 µM [activator, partial curve, poor fit]",–
CCOC(=O)C1(Cc2cccc(Cl)c2)CCCN(C(=O)c2ccc(COC)s2)C1 (configuration not stated),–,inactive: 2.63%
O=C(Cc1cccc(NC(=O)C2CCN(C(=O)CCc3ccccc3)CC2)c1)Nc1cccc(C(=O)N2CCCCC2)c1,"inconclusive: 29.1 µM [activator, single point]",–
O=C(CCCN1C(=O)/C(=C/c2cccs2)SC1=S)Nc1cc([N+](=O)[O-])ccc1O,"inconclusive: 32.6 µM [activator, single point]",–
OC[C@H]1O[C@H](OC[C@H]2OC(O)[C@H](O)[C@@H](O)[C@@H]2O)[C@H](O)[C@@H](O)[C@@H]1O (some centres not stated),–,inactive: 10%
COc1ccccc1C(=O)NCCOc1ccc(C(C)(C)C)cc1,–,inactive: -6.4%

# Structural class, the compounds so far containing a cyano group.
SMILES,Potency,re-replication activation
CCOC(=O)N1CC=C2C(C#N)=C(N)C(C#N)(C#N)[C@H](c3ccc(OC(C)C)c(OCC)c3)[C@H]2C1,"inconclusive: 29.1 µM [activator, single point]",–
C/C(N)=C(/C#N)C(=O)CSc1nnc(Nc2cccc(C)c2)s1,"inconclusive: 29.1 µM [activator, single point]",–
CCN1CCN(c2c(/C=C3\SC(=S)N(Cc4ccco4)C3=O)c(C)c(C#N)c(=O)n2C)CC1,"inconclusive: 29.1 µM [activator, single point]",–
